Data: PubChem BioAssay AID504834 (National Center for Advancing Translational Sciences (NCATS), 2011)
Among all 320,000 compounds or so, about 22,000 (6.9%) were called active. Inconclusive results, whose numbers are uncertain, are shown with a selection of clear calls. The call rests on the fitted dose curve; in most records, active means well fitted inhibition curve with a large enough effect; inconclusive means small, poorly fitted or top-dose-only effect, or another doubt; inactive means no such curve, though single readings can be large or run the other way. Where the call is inconclusive, the potency comes from a doubtful curve fit.

Test: Primary qHTS for delayed death inhibitors of the malarial parasite plastid, 96 hour incubation
Conditions: P. falciparum luciferase reporter growth; series mostly up to 28.7 µM; activity change, negative = inhibition: at the top concentration
Method in brief: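 Plates of compound plus infected erythrocytes (2% hematocrit, 0.05% parasitemia final) incubate 96 hours, 37 C, 5% CO2. Detection reagent added; reduced luminescence from the parasites' luciferase reporter flags inhibition.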
On the % scale 0 is the no-effect control and ±100 the full control effect; potency means the concentration at half of the fitted maximal effect.

Row | Structure (SMILES) | activity change, negative = inhibition | Potency
1 | COc1cc(S(=O)(=O)Nc2cccnc2)ccc1F | inactive: 39.6% | –
2 | O=C(NCCc1c[nH]c2ccccc12)C1CCC(=O)N(CCc2cccc(F)c2)C1 (stereo not drawn) | – | inconclusive: 18.5 µM [inhibitor, single point]
3 | COc1cccc(C2Nc3cccc4cccc(c34)N2)c1 | – | active: 7.38 µM
4 | O=C(COc1ccc(C(=S)N2CCC(Cc3ccccc3)CC2)cc1)N1CCOCC1 | – | inconclusive: 3.29 µM [inhibitor, partial curve, poor fit]
5 | Cc1noc(C)c1COc1ccccc1C(=O)NCCc1ccc(Cl)cc1 | – | inconclusive: 18.5 µM [inhibitor, partial curve, poor fit]
6 | O=C1CSC(c2cn(-c3ccccc3)nc2-c2cc3ccccc3oc2=O)N1Cc1ccco1 (stereo not drawn) | – | inconclusive: 0.828 µM [inhibitor, partial curve, poor fit]
7 | Cc1nc(NCc2cccnc2)c2c3c(sc2n1)CCCC3 | inactive: -52.5% | –
8 | Cc1ccccc1NC(=O)CCS(=O)(=O)c1ccc(Br)s1 | inactive: 265% | –
9 | CC1(c2nnc(-c3ccc(Cl)cc3)o2)CC(c2cccc(Cl)c2)=NO1 (stereo not drawn) | – | inconclusive: 18.5 µM [inhibitor, single point]
10 | CN(C)S(=O)(=O)c1ccc(N2CCCC2)c(C(=O)Nc2nc(-c3ccc(F)cc3)cs2)c1 | – | inconclusive: 10.4 µM [inhibitor, single point]
11 | CCN1C(=O)/C(=C\N2CCN(C(=O)c3ccco3)CC2)SC1=S | – | inconclusive: 5.86 µM [inhibitor, partial curve, poor fit]
12 | N#CCCN/N=C(\Cc1nc2ccccc2[nH]1)c1ccccc1 | – | inconclusive: 18.5 µM [inhibitor, single point]
13 | CC(C)CCn1c(O)c(N=NC(=O)c2ccco2)c2ccccc21 | – | inconclusive: 13.1 µM [inhibitor, single point]
14 | COc1cccc(C2(c3cccc(OC)c3)CC2C(=O)Nc2ccccc2Cl)c1 (stereo not drawn) | – | inconclusive: 16.5 µM [inhibitor, partial curve, poor fit]
15 | CCOc1ccc(N=Cc2c(C)[nH]n(-c3nc4ccccc4[nH]3)c2=O)cc1 | inactive: 22.8% | –
16 | CN(CC(=O)Nc1ccccc1-c1ccccc1)Cc1ccccc1Cl | – | inconclusive: 10.4 µM [inhibitor, single point]
17 | Cc1ccccc1OCCC(=O)Nc1ccccc1C(=O)N1CCCCC1 | inactive: 33.7% | –
18 | O=C(CSc1ccc2nnc(-c3ccccn3)n2n1)Nc1ccccc1C(F)(F)F | – | inconclusive: 18.5 µM [inhibitor, single point]
19 | CC(=O)Nc1ccc(NC(=O)c2ccc(C)c(S(=O)(=O)Nc3cccc(C)c3)c2)cc1 | inactive: 44.4% | –
20 | CC(C)(C)C(=O)/C(C#N)=c1\s/c(=C\c2ccncc2)c(=O)n1CCCN1CCOCC1 | inactive: 6.84% | –
21 | COc1cc(OC)cc(N(C(=O)CNC(=O)c2cccs2)C(C(=O)NCC2CCCO2)c2ccccc2)c1 (stereo not drawn) | – | inconclusive: 11.7 µM [inhibitor, single point]
22 | O=C(NC1CCN(Cc2ccccc2)CC1)c1ccccc1Cl | – | inconclusive: 18.5 µM [inhibitor, single point]
23 | O=C1CCC(CCC(=O)N2CCCC(C(=O)c3ccc4c5c(cccc35)CC4)C2)=NN1 (stereo not drawn) | – | inconclusive: 18.5 µM [inhibitor, single point]

Row | Structure (SMILES) | activity change, negative = inhibition | Potency
24 | O=C(c1ccccc1)N1N=C(c2ccccc2)CC1c1ccccc1[N+](=O)[O-] (stereo not drawn) | – | active: 1.65 µM
25 | Cc1cc(Br)ccc1SCC(=O)Nc1cccnc1 | – | inconclusive: 7.38 µM [inhibitor, single point]
26 | COc1ccccc1CNC(=O)COc1ccc(Br)c(C)c1 | – | inconclusive: 18.5 µM [inhibitor, single point]
27 | CCOc1cc(/C=N/NC(=O)Cn2nc([N+](=O)[O-])cc2C)cc(Br)c1OCc1ccccc1C | – | inconclusive: 18.5 µM [inhibitor, single point]
28 | Cc1sc2nc(CSc3ccccc3)nc(N3CCOCC3)c2c1C | – | inconclusive: 14.7 µM [inhibitor, single point]
29 | CC[C@H](C)[C@H](NC(N)=O)C(=O)NCCc1ccc(Cl)cc1Cl | inactive: 11.7% | –
30 | CCCN1CCN(C(c2cc3cc4c(cc3[nH]c2=O)OCO4)c2nnnn2C(C)(C)C)CC1 (stereo not drawn) | – | inconclusive: 11.7 µM [inhibitor, single point]
31 | COC(=O)c1cc(NC(=O)c2cccc([N+](=O)[O-])c2C)ccc1Cl | inactive: 3.35% | –
32 | O=c1c2ccccc2nc(SCc2ccc(F)cc2Cl)n1CCCN1CCOCC1 | – | inconclusive: 11.7 µM [inhibitor, partial curve, poor fit]
33 | Cc1ccc(C(=O)NCCN2CCCC2)cc1 | – | inconclusive: 14.7 µM [inhibitor, single point]
34 | CCOc1ccccc1C(=O)NN1C(=O)C2CCCCC2C1=O (stereo not drawn) | – | inconclusive: 4.15 µM [inhibitor, partial curve, poor fit]
35 | CCCN(C(=O)c1cc(S(=O)(=O)N2CCCCCC2)ccc1OC)C1CCS(=O)(=O)C1 (stereo not drawn) | inactive: -16.9% | –
36 | COc1cc(CO)ccc1OCC(=O)Nc1cccc2ccccc12 | – | inconclusive: 18.5 µM [inhibitor, single point]
37 | COCCNC(=O)CSc1nc2ccccc2c(=O)n1CCC(=O)N1CCN(c2ccccc2)CC1 | inactive: -14.6% | –
38 | Cc1ccccc1/C=C/C(=O)NCC(=O)N1CCC(N(C)C2CCCCC2C)CC1 (stereo not drawn) | – | inconclusive: 18.5 µM [inhibitor, single point]
39 | CCc1nn2c(=O)c(S(=O)(=O)Nc3cccc(F)c3)c(C)nc2s1 | – | inconclusive: 1.17 µM [inhibitor, full curve]
40 | CC1=C(C(=O)Nc2ccccc2)C(c2ccc(C)o2)n2c(s/c(=C\c3ccco3)c2=O)=N1 (stereo not drawn) | – | inconclusive: 0.0828 µM [inhibitor, full curve, poor fit]
41 | O=C1C(Cc2c[nH]c3ccccc23)NC(=S)N1Cc1ccccc1 (stereo not drawn) | – | active: 13.1 µM
42 | O=C(NCc1ccc2c(c1)OCO2)c1nc(Cn2ccc([N+](=O)[O-])n2)no1 | – | inconclusive: 13.1 µM [inhibitor, partial curve, poor fit]
43 | COCCC(=O)N1CCC(Oc2ccc(C(=O)NCCn3cccn3)cc2)CC1 | – | inconclusive: 18.5 µM [inhibitor, partial curve, poor fit]
44 | CC1(C)CC2CC(C)(CN2C(=O)c2cccs2)C1 (stereo not drawn) | – | inconclusive: 0.522 µM [inhibitor, full curve, poor fit]
45 | O=C(CC1SC(=NC2CCCCC2)NC1=O)Nc1ccccc1 (stereo not drawn) | – | inconclusive: 0.0657 µM [inhibitor, full curve, poor fit]
46 | Cc1nnc(Nc2ccc(Cl)c(C(F)(F)F)c2)[nH]c1=O | – | inconclusive: 7.38 µM [inhibitor, partial curve, poor fit]

Row | Structure (SMILES) | activity change, negative = inhibition | Potency
47 | CC1=CS(=O)(=O)CC1Sc1nc(C)n[nH]1 (stereo not drawn) | – | inconclusive: 11.7 µM [inhibitor, single point]
48 | CCOc1ccc(Cl)cc1S(=O)(=O)N1CCC(C(=O)NCc2ccncc2)CC1 | inactive: 53.5% | –
49 | CCOC(=O)C1(c2ccccc2)CCN(CCC(=O)Nc2ccc(F)cc2)CC1 | – | active: 9.28 µM
50 | Cc1nc(Sc2ccccc2)c(C#N)c(C)c1[N+](=O)[O-] | – | inconclusive: 9.28 µM [inhibitor, single point]
51 | O=C(N/N=C(\CC(=O)c1cccs1)C(F)(F)F)c1ccncc1 | – | inconclusive: 6.57 µM [inhibitor, partial curve, poor fit]
52 | [N-]=[N+]=CC(=O)OCC(N)C(=O)O (stereo not drawn) | – | inconclusive: 3.79 µM [inhibitor, full curve]
53 | C=CC(COCc1ccccc1)N(C(=O)OC(C)(C)C)S(=O)(=O)c1ccccc1Br (stereo not drawn) | – | inconclusive: 10.4 µM [inhibitor, single point]
54 | O=C(O)c1ccc(S(=O)(=O)c2ccc3c(c2)C(=O)N(NC(=O)c2cccnc2)C3=O)cc1 | inactive: -11.3% | –
55 | Cc1ccc(NNC(=O)c2ccno2)c(C)c1 | – | inconclusive: 0.147 µM [inhibitor, full curve, poor fit]
56 | O=C(COC(=O)c1ccc(Cl)nc1)NCc1cccs1 | – | active: 2.33 µM
57 | CN(C)c1ccc(NC(=O)CC2NCCNC2=O)cc1 (stereo not drawn) | – | active: 0.208 µM
58 | CC1(C)CC(=O)CC2(C1)NCC(c1ccccc1)c1c2[nH]c2ccccc12 (stereo not drawn) | – | active: 10.4 µM
59 | O=C(COc1cccc2ccccc12)N1CCN(c2ccccc2)CC1 | – | inconclusive: 11.7 µM [inhibitor, single point]
60 | COc1ccccc1CCNC1C2CC3CC(C2)CC1C3 (stereo not drawn) | – | inconclusive: 1.31 µM [inhibitor, partial curve, poor fit]
61 | O=C(Nc1ccc(Cl)c([N+](=O)[O-])c1)ONC1=NCCCCC1 | – | inconclusive: 0.586 µM [inhibitor, full curve, poor fit]
62 | Cc1ccc(/C=C2/SC(=S)N(CCC(=O)N3CCN(C)CC3)C2=O)cc1 | – | active: 11.7 µM
63 | COc1ccc(C(CNC(=O)c2cccc(N(C)C)c2)N2CCCC2)cc1 (stereo not drawn) | – | inconclusive: 13.1 µM [inhibitor, partial curve, poor fit]
64 | O=C(Nc1ccc(Cl)cc1)Nc1ccc(N2CCCC2)c(S(=O)(=O)Nc2ccccc2Cl)c1 | – | inconclusive: 16.5 µM [inhibitor, single point]
65 | COc1ccc2c(c1)nc(SCC(=O)c1cccs1)n2C | inactive: 84.1% | –
66 | Cc1ccc(Cl)cc1N1CCN(C(=O)CN(c2ccccc2)S(=O)(=O)N(C)C)CC1 | inactive: -77.2% | –
67 | CC(C)(C)OC(=O)COc1cc(O)c2c(=O)cc(-c3ccccc3)oc2c1 | – | inconclusive: 16.5 µM [inhibitor, single point]
68 | C/C(=N/NC(=O)c1ccco1)c1cccc(NC(=O)c2ccc(C)s2)c1 | inactive: 33.5% | –

Gathered by group, the entries above with a COOH group
Row | Structure (SMILES) | activity change, negative = inhibition | Potency
52 | [N-]=[N+]=CC(=O)OCC(N)C(=O)O (stereo not drawn) | – | inconclusive: 3.79 µM [inhibitor, full curve]
54 | O=C(O)c1ccc(S(=O)(=O)c2ccc3c(c2)C(=O)N(NC(=O)c2cccnc2)C3=O)cc1 | inactive: -11.3% | –
